Laboratory results: PubChem BioAssay AID1259424 (University of Nebraska Medical Center, 2018)

Purpose: 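Rank knockdowns across the genome by resemblance to the KSR1 depletion profile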 (primary screen)
System: human HCT116 colon cancer cells
Knock-down reagent: siRNA pool against human genes, 50 nM
Read-out: 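Six signature mRNAs by branched-DNA multiplex assay, scaled to two housekeeping genes and non-targeting median, log2; matched to mean KSR1 knockdown profile by Pearson correlation and euclidean distance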
Direction: mean correlation with KSR1 profile and KSR1 correlation: higher = expression change more like KSR1 knockdown; mean distance from KSR1 profile: higher = expression change less like KSR1 knockdown
In all, the deposit lists about 14,000 reagents; shown is an unselected part. 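Higher correlation or smaller distance means closer resemblance to KSR1 loss; control wells, including KSR1 knockdowns, recur on many plates.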 Reagents against one gene are numbered here. Not stated in the record: the time to read-out.

The first 6 records as a preview:
| gene | pool no. | mean correlation with KSR1 profile | mean distance from KSR1 profile | KSR1 correlation, replicate 1 | KSR1 correlation, replicate 2 | KSR1 correlation, replicate 3 |
| --- | --- | --- | --- | --- | --- | --- |
| SLC30A5 | 1 | 0.177 | 3.48 | 0.191 | 0.0965 | 0.0645 |
| FOXD4 | 1 | -0.367 | 3.33 | -0.421 | -0.24 | -0.299 |
| BPIFA4P | 1 | -0.394 | 3.52 | -0.553 | -0.53 | -0.34 |
| SACK1A | 1 | 0.466 | 3.79 | 0.452 | 0.408 | 0.337 |
| MAK16 | 1 | 0.684 | 1.3 | 0.56 | 0.561 | 0.622 |
| TARBP1 | 1 | 0.732 | 1.63 | 0.462 | 0.818 | 0.697 |

The list itself, from the start:
| gene | pool no. | mean correlation with KSR1 profile | mean distance from KSR1 profile | KSR1 correlation, replicate 1 | KSR1 correlation, replicate 2 | KSR1 correlation, replicate 3 |
| --- | --- | --- | --- | --- | --- | --- |
| SLC30A5 | 1 | 0.177 | 3.48 | 0.191 | 0.0965 | 0.0645 |
| FOXD4 | 1 | -0.367 | 3.33 | -0.421 | -0.24 | -0.299 |
| BPIFA4P | 1 | -0.394 | 3.52 | -0.553 | -0.53 | -0.34 |
| SACK1A | 1 | 0.466 | 3.79 | 0.452 | 0.408 | 0.337 |
| MAK16 | 1 | 0.684 | 1.3 | 0.56 | 0.561 | 0.622 |
| TARBP1 | 1 | 0.732 | 1.63 | 0.462 | 0.818 | 0.697 |
| TEP1 | 1 | 0.184 | 2.24 | 0.0214 | 0.272 | 0.0628 |
| VASH1 | 1 | -0.605 | 1.97 | -0.286 | -0.647 | -0.689 |
| TCF7L2 | 1 | 0.844 | 1.25 | 0.896 | 0.828 | 0.711 |
| ANP32CP | 1 | 0.466 | 1.1 | 0.31 | 0.581 | 0.36 |
| CSPG5 | 1 | 0.435 | 2.43 | 0.419 | 0.432 | 0.489 |
| SLC7A7 | 1 | -0.281 | 2.8 | -0.0678 | -0.415 | -0.267 |
| EFCC1 | 1 | 0.463 | 1.44 | 0.467 | 0.547 | 0.433 |
| B4GAT1 | 1 | 0.0855 | 1.54 | 0.26 | -0.0327 | 0.0476 |
| ANKRD13C-DT | 1 | -0.41 | 2.81 | -0.126 | -0.472 | -0.526 |
| PAX5 | 1 | 0.833 | 0.838 | 0.897 | 0.749 | 0.75 |
| PEX11A | 1 | -0.386 | 2.01 | -0.651 | -0.438 | -0.278 |
| NPL | 1 | 0.861 | 1.86 | 0.8 | 0.871 | 0.791 |
| HSFY2 | 1 | 0.142 | 1.43 | 0.254 | -0.158 | -0.0537 |
| FAM193A | 1 | -0.188 | 1.92 | -0.24 | -0.229 | 0.0837 |
| ABCA4 | 1 | -0.413 | 2.15 | -0.605 | -0.497 | -0.269 |
| RRAS | 1 | 0.477 | 1.02 | 0.234 | 0.453 | 0.61 |
| MYO9B | 1 | -0.195 | 1.75 | -0.177 | -0.396 | 0.0106 |
| DDHD2 | 1 | -0.418 | 2.54 | -0.455 | -0.495 | -0.127 |
| TMEM187 | 1 | -0.229 | 3.57 | -0.00411 | -0.273 | -0.313 |
| FGF19 | 1 | -0.161 | 0.976 | 0.443 | -0.503 | -0.118 |
| ATF6B | 1 | -0.221 | 3.74 | -0.211 | -0.4 | -0.0571 |
| ARFGEF2 | 1 | -0.13 | 2.71 | -0.12 | -0.0135 | -0.199 |
| TCHH | 1 | 0.789 | 1.79 | 0.98 | 0.575 | 0.783 |
| SNCA | 1 | -0.388 | 2.64 | -0.551 | -0.409 | -0.2 |
| PPTC7 | 1 | -0.0974 | 3.48 | -0.00416 | -0.346 | -0.128 |
| ALKBH3 | 1 | -0.0394 | 1.57 | 0.185 | -0.187 | -0.386 |
| CNTN5 | 1 | -0.807 | 2.55 | -0.788 | -0.834 | -0.817 |
| HPGD | 1 | 0.0434 | 4.18 | -0.183 | -0.113 | 0.0865 |
| TASP1 | 1 | -0.507 | 2.27 | -0.533 | -0.105 | -0.57 |
| CASR | 1 | 0.726 | 1.36 | 0.594 | 0.8 | 0.718 |
| INO80D | 1 | -0.425 | 1.84 | -0.378 | -0.321 | -0.522 |
| CYLC2 | 1 | 0.662 | 1.27 | 0.648 | 0.476 | 0.732 |
| PPFIA3 | 1 | 0.403 | 1.22 | 0.0149 | 0.421 | 0.683 |
| C2CD5 | 1 | -0.167 | 1.68 | -0.0955 | -0.437 | 0.0346 |
| FPGS | 1 | -0.763 | 2.03 | -0.731 | -0.841 | -0.812 |
| PHYKPL | 1 | -0.0812 | 2.49 | -0.197 | 0.106 | -0.298 |
| CPEB1 | 1 | 0.357 | 1.51 | 0.436 | 0.088 | 0.455 |
| SCGB1D1 | 1 | 0.241 | 1.66 | 0.131 | 0.0956 | 0.462 |
| LEFTY1 | 1 | -0.231 | 1.62 | -0.221 | -0.388 | -0.185 |
| MICAL3 | 1 | -0.61 | 2.92 | -0.587 | -0.641 | -0.538 |
| MICAL3 | 2 | -0.446 | 4.09 | -0.2 | -0.758 | -0.346 |
| CPXCR1 | 1 | 0.0437 | 3.06 | 0.0403 | 0.0321 | 0.23 |
| CCNE2 | 1 | 0.0128 | 1.03 | -0.0075 | 0.149 | -0.295 |
| TMEM234 | 1 | 0.178 | 1.43 | -0.137 | 0.294 | 0.175 |
